Laboratory results published in patent US7410797B2, “Meningeal-derived stem cells” (priority 2002, dated 2008).
For at least one compound, name, drawing or mass did not settle the structure.

Test system: Cells from the meninges
Test: Neural differentiation of meningeal-derived stem cells in induction media
Format: cell-based
Method: Cells from the meninges that are allowed to become 70% confluent (FIG. 2A) are susceptible to differentiating into nerve under two conditions: antioxidant treatment and steroid hormone treatment. […] This can also be achieved with other antioxidants (i.e., reducing agents), such as butylated hydroxyanisole (BHA) (approximately 200 μM), dithiothreitol (DTT; i.e., Cleland's reagent), as well as dithioerythritol, tributylphosphine, iodoacetamide, tris-phosphine HCl, deoxythymidine-triphosphate trilithium salt, diethylthiatricarbocyanine perchlorate, diethylthiatricarbocyanine iodide and DECROLINE D (available from BASF Corporation; Mount Olive, N.J.; generic name zinc formaldehyde sulfoxylate). These conditions are similar to those used to differentiate bone marrow-derived stem cells and adipose-derived stem cells (D. Woodbury et al., “Adult rat and human bone marrow stromal cells differentiate into neurons,” J. Neuroscience Res., 61(4):364-70 (2000)). The cells that form have a bipolar morphology and express nerve-specific markers.
The cells differentiate into what are morphologically distinct subsets of neurons when exposed to small concentrations (e.g, 100 nM) of dexamethasone; a steroid hormone.
These may therefore be used as substitutes for dexamethasone. Other steroids that may be used in accordance with this embodiment of the present invention include pregnenolone, aldosterone, testosterone, estradiol and cortisol.

Structure (SMILES)	expression of neuronal marker gene β-III tubulin (DMEM, 10% FBS, 100 nM dexamethasone)	neural differentiation (morphology) (steroid hormone treatment, DMEM, 10% FBS, 100 nM dexamethasone)	effect on neural differentiation compared with dexamethasone (used as substitutes for dexamethasone)
C[C@@H]1C[C@H]2[C@@H]3CCC4=CC(=O)C=C[C@]4(C)[C@@]3(F)[C@@H](O)C[C@]2(C)[C@@]1(O)C(=O)CO [dexamethasone]	express the specific neuronal marker gene β-III tubulin	causes neural differentiation	–
CC1=C(/C=C/C(C)=C/C=C/C(C)=C/C(=O)O)C(C)(C)CCC1 [retinoic acid]	–	–	elicited similar effects to dexamethasone
